# Data as given in PubChem BioAssay AID1671195 (Yale University, 2021).
# Test: 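Knockdowns that increase or decrease uptake of fluorescent LDL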 (primary screen)
# Cell system: human Huh7 hepatoma cells
# Reagent: siRNA pool against human genes, 18 nM
# Duration: about 2 to 2.5 days of knockdown, then 8 h LDL uptake
# Conditions: DiI-labelled LDL at 30 µg/ml for 8 h, in lipoprotein-deficient serum medium
# Measured: 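Per-cell DiI-LDL intensity by automated imaging; well means scaled to the plate median and given as a robust z-score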
# Scale: robust z-score: higher = more LDL uptake after knockdown
# Hit rule: 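a gene counts as active if at least two replicate z-scores exceed ±2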
# The whole screen tested about 22,000 reagents; below is a random part of them. Of all reagents, about 1,510 (6.9%) are marked active. 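Active includes knockdowns raising or lowering LDL uptake; positive z-scores mean more uptake, negative mean less.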 A number with no mark means an inactive call. Reagents against one gene are numbered here.
"robust z-score, replicate 1","robust z-score, replicate 2","robust z-score, replicate 3",target,reagent no.
-0.131,0.312,0.518,CCDC71,1
-1.25,-1.06,-1.68,EXOSC9,1
-0.23,-0.311,0.0343,LOC440286 (retired record),1
-0.866,0.569,0.0263,GOLM2,1
-0.14,0.644,1.76,PAK6,1
0.831,1.46,1.4,LOC388853 (retired record),1
-0.779,-1.06,-0.721,LOC442461 (retired record),1
0.45,0.465,0.338,PTPRN,1
0.608,0.552,0.545,ADAMTS17,1
-1.32,-1.62,-1.63,OR9Q2,1
-0.569,-1.14,-0.816,ITGB2,1
0.565,-0.457,0.435,OR13C8,1
-0.565,1.14,0.27,APP,1
1.02 (active),2.37,1.95,SLC1A6,1
-0.935,-2.08,-0.944,ESR2,1
0.086,0.249,0.296,SPZ1,1
-0.2,-1.5,0.163,TAPBPL,1
-0.425,-0.651,-0.327,ZFP41,1
-0.314,-0.762,-0.481,SFXN3,1
0.994,0.42,1.8,SLC2A4,1
0.3,-0.233,0.386,BTF3L4,1
0.181,0.685,0.991,RANBP10,1
0.0716,1.53,0.275,PDLIM4,1
-0.019,0.272,-0.0518,SIGMAR1,1
-0.759,-0.0279,-0.702,SYNE4,1
1.32,1.18,1.75,MDH2,1
1.08,0.474,-0.0252,LLGL1,1
2.33 (active),2.1,-0.214,DEPDC5,1
2.6,-0.446,0.816,COPRS,1
-0.517,-0.438,-0.059,ETHE1,1
-0.909,-1.54,-1.18,ANXA13,1

The list goes on (8 carried over from the part before).
"robust z-score, replicate 1","robust z-score, replicate 2","robust z-score, replicate 3",target,reagent no.
-0.019,0.272,-0.0518,SIGMAR1,1
-0.759,-0.0279,-0.702,SYNE4,1
1.32,1.18,1.75,MDH2,1
1.08,0.474,-0.0252,LLGL1,1
2.33 (active),2.1,-0.214,DEPDC5,1
2.6,-0.446,0.816,COPRS,1
-0.517,-0.438,-0.059,ETHE1,1
-0.909,-1.54,-1.18,ANXA13,1
0.949,0.998,1.71,NOP16,1
0.0389,0.0258,-0.0926,LOC284623 (retired record),1
-1.29,-1.14,-1.03,TRAIP,1
2.91,0.733,0.927,LOC441174 (retired record),1
0.15,0.12,0.204,RTP2,1
-0.212,-0.894,0.713,DLL3,1
-0.963,-0.918,-0.611,LOC440668 (retired record),1
0.395,0.581,0.311,EGFEM1P,1
-0.541,-0.0357,-0.539,EGFEM1P,2
-0.571,-0.649,-0.654,EGFEM1P,3
-0.967,-0.178,-0.837,NANP,1
3.51 (active),2.42,4.72,FNBP1,1
0.239,-0.451,-0.114,LOC440201 (retired record),1
2.75 (active),2.8,3.39,CTDP1,1
0.464,0.446,0.126,CDH2,1
0.36,-0.431,-0.133,H1-1,1
-0.334,-0.318,-0.423,LOC440889 (retired record),1
-0.602,-1.57,-0.151,PTTG2,1
-0.93,-0.705,-0.734,KLF9,1
-0.89,-0.219,0.615,CDC42,1
2.62 (active),3.26,3.77,HOOK3,1
0.326,1.22,-0.242,TINAG,1
1.09,0.0364,1.49,PRSS1,1
-3.34 (active),-3.32,-3.22,LINC00314,1
-1.51,-1.63,-1.48,LOC440084,1
-1.08,-0.502,-0.587,GLYATL1,1
0.459,0.106,-0.0662,CHPT1,1
0.38,-0.0548,0.459,NAIP,1
1.07,0.896,1.23,OR8B12,1
-2.41,-0.94,-0.166,AKIP1,1
0.616,-0.968,1.88,CLEC3B,1
0.714,-0.0991,-1.37,BOLA1,1
-0.504,0.779,-0.455,RBM41,1
-0.36,-0.523,-0.254,TEK,1
-1.08,-1.4,-1.25,LOC441141 (retired record),1
-1.78 (active),-2.23,-1.95,RPL32P7,1
-0.452,-1.34,-0.768,GRM4,1
